Data published in article PMC12007717.

By UniProt entry, the sequences of proteins in these tests, tags left out.
UniProt P35201: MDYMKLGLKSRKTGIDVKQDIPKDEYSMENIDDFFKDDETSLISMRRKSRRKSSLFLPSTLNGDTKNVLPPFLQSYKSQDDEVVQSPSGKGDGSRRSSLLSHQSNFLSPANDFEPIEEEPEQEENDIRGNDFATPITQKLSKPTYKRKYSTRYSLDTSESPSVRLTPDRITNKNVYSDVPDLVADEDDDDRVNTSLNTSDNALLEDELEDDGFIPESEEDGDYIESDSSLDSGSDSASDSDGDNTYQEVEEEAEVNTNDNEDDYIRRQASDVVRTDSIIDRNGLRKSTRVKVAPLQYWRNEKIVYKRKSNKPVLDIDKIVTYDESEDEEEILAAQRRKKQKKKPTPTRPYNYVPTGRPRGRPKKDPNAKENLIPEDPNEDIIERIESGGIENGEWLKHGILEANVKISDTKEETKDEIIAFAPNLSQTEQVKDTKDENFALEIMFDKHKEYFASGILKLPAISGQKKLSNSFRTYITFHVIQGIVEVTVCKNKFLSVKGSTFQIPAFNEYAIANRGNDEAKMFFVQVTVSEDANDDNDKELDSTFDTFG
UniProt P40460: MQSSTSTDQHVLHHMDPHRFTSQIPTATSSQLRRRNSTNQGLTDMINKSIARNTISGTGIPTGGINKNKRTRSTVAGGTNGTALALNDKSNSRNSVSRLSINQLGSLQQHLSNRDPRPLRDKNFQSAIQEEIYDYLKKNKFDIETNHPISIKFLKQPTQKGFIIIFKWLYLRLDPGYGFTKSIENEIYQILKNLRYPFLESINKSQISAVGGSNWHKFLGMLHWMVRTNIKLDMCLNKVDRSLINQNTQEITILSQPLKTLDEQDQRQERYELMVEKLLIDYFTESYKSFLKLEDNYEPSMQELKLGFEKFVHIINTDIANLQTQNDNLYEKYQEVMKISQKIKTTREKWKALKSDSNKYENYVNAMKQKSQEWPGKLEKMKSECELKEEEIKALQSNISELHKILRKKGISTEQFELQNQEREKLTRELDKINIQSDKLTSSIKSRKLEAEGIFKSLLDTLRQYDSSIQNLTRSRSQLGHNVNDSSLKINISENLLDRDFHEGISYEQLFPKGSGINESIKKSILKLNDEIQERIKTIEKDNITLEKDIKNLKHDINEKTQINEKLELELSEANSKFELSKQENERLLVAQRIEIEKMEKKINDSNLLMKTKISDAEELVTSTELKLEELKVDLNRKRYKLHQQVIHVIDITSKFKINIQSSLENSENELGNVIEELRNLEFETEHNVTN
UniProt Q07963: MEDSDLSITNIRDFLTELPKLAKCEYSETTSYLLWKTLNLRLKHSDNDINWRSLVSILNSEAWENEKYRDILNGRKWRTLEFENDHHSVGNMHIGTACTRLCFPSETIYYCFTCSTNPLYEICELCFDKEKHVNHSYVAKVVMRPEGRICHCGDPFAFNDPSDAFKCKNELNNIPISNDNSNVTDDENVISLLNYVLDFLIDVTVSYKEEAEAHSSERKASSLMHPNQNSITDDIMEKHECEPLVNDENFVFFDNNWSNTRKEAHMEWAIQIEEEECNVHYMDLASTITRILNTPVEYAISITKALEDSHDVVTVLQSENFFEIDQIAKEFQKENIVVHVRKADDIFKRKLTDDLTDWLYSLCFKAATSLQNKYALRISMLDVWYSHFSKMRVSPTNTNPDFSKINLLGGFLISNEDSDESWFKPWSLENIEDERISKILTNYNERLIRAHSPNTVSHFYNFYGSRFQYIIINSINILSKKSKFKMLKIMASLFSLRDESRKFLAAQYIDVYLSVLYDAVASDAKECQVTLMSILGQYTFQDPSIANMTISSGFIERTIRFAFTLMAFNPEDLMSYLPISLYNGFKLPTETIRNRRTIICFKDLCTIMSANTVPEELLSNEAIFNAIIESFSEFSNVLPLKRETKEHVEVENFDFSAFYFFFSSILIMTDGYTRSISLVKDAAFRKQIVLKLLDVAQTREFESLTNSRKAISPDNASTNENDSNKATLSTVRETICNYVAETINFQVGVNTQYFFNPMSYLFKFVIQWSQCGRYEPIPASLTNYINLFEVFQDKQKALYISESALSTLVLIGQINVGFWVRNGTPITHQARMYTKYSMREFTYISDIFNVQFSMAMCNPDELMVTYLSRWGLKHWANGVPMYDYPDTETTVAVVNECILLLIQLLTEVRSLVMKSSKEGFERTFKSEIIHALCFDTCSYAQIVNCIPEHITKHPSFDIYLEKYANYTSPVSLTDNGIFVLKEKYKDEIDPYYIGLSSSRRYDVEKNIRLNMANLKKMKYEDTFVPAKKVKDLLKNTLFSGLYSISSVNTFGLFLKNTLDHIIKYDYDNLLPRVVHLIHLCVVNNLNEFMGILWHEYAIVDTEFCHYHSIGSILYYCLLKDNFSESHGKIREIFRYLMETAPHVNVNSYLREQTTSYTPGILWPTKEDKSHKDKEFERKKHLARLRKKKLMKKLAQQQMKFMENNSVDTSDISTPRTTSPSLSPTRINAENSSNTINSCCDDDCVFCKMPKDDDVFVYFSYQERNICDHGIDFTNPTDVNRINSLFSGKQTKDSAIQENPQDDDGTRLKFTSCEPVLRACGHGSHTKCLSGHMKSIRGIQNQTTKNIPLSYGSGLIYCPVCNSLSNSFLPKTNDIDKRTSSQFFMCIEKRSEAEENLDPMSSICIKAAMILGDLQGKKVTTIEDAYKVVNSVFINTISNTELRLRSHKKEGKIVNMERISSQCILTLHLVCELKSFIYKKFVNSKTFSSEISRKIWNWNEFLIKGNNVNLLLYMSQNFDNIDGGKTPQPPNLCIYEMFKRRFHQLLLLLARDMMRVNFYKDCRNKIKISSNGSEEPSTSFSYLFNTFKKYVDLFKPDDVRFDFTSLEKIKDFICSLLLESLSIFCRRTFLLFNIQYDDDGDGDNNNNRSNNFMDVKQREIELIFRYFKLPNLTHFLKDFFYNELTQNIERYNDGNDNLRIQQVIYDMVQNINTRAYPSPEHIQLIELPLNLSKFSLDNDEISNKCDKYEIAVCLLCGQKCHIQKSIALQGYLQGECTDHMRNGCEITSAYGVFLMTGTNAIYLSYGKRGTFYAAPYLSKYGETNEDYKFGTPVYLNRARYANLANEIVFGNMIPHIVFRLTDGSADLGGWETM

T1: Dsn1-6His-3FLAG (S. cerevisiae) (UniProt P40568)
T1 sequence: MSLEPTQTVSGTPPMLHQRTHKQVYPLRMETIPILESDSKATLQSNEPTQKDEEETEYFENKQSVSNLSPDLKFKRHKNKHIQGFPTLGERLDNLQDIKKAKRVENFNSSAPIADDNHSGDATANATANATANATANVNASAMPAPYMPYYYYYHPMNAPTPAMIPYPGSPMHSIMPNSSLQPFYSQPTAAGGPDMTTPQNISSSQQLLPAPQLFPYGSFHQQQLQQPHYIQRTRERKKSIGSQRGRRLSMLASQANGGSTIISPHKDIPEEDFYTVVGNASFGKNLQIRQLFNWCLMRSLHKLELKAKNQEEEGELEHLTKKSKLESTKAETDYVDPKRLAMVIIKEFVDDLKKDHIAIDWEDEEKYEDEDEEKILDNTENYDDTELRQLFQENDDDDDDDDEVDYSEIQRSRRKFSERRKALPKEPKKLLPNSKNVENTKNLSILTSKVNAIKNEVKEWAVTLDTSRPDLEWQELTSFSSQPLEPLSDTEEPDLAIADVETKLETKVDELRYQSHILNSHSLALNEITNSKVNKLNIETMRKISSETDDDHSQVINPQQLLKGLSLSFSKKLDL

T2: Dad1-3FLAG (S. cerevisiae) (UniProt Q12248)
T2 sequence: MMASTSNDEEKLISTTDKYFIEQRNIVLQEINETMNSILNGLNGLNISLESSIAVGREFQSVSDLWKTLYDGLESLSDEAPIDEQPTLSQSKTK


What follows are molecules tested against T1, Dsn1-6His-3FLAG (S. cerevisiae) (assay: affinity purification with mass spectrometry; one-step anti-Flag purification of Dsn1-His-Flag or Ndc80-Flag from yeast lysate, Buffer H with 150 mM KCl; Rapigest elution, trypsin, Orbitrap Fusion; WT, pGAL-MPS1, mps1-1 and ndc80 phosphomutant backgrounds).

| Molecule | binding |
| --- | --- |
| Mif2 (from UniProt P35201 1-549) | binds |
| Ndc80 (wild type) (from UniProt P40460 1-691) | binds |
| Ubr2 (from UniProt Q07963 1-1872) | binds |

Next, values leading:

| binding | Molecule |
| --- | --- |
| binds | Dam1 (protein, UniProt P53267 1-343) MSEDKAKLGTTRSATEYRLSIGSAPTSRRSSMGESSSLMKFADQEGLTSSVGEYNENTIQQLLLPKIRELSDSIITLDSNFTRLNFIHESLADLNESLGSLLYGIMSNSWCVEFSQAPHDIQDDLIAIKQLKSLEDEKNNLVMELSNMERGIKRKKDEQGENDLAKASQNKQFNQPLFPSSQVRKYRSYDNRDKRKPSKIGNNLQVENEEDYEDDTSSEASFVLNPTNIGMSKSSQGHVTKTTRLNNNTNSKLRRKSILHTIRNSIASGADLPIENDNVVNLGDLHPNNRISLGSGAARVVNGPVTKNRNSMFSGRAERKPTESRHSVAKKTEKKINTRPPFR |
| binds | Duo1 (protein, UniProt P53168 1-247) MSEQSQLDDSTIDKLIPQIFNEMRSNLNNTTNKFPKSTGGGASDNISANSNSIRSFNSITTQSLLKESESLDKITAMIKNVTAALKNNLPVYVNQVHEVCKSTNSILDSWINIHSQAGYIHKLMSDQTYLKLINDRLHNENVNTNDEDGSTLHNVIALKKKEILDLRQKLENRKGEKDAAPAKPPNQGLNPRYGVQSGRRPVPSAGISNNGRVRKTHVPASKRPSGIPRVTNRWTKPTASSSRKMFR |

These molecules were tested against T2, Dad1-3FLAG (S. cerevisiae) (assay: affinity purification with mass spectrometry; one-step anti-Flag purification of Dad1-Flag from yeast lysate, Buffer H with 250 mM KCl; silver-stained PAGE and mass spectrometry; WT and pGAL-MPS1 backgrounds).

| binding | Molecule |
| --- | --- |
| binds | Dam1 (protein, UniProt P53267 1-343) MSEDKAKLGTTRSATEYRLSIGSAPTSRRSSMGESSSLMKFADQEGLTSSVGEYNENTIQQLLLPKIRELSDSIITLDSNFTRLNFIHESLADLNESLGSLLYGIMSNSWCVEFSQAPHDIQDDLIAIKQLKSLEDEKNNLVMELSNMERGIKRKKDEQGENDLAKASQNKQFNQPLFPSSQVRKYRSYDNRDKRKPSKIGNNLQVENEEDYEDDTSSEASFVLNPTNIGMSKSSQGHVTKTTRLNNNTNSKLRRKSILHTIRNSIASGADLPIENDNVVNLGDLHPNNRISLGSGAARVVNGPVTKNRNSMFSGRAERKPTESRHSVAKKTEKKINTRPPFR |
| binds | Ask1 (protein, UniProt P35734 1-292) MDSASKEETLEKLDQEITVNLQKIDSNLSFCFHKITQDIIPHVATYSEICERIMDSTEWLGTMFQETGLVNLQANAAAPVGNAPVKSLVSNNVGIFPTSAEEASRQSQTDNGPNEADSAVHVNRDVHSMFNNDSIDDFHTANITSTGQILKLPDSSDEDTGSEAVPSREQTDLTGEGHGGADDEQDESTIQRQSRKRKISLLLQQQYGSSSSMVPSPIVPNKMRKQLAHEEHINNDGDNDDENSNNIESSPLKQGHHHPKGQADDNNEGPDEEESTKEVPKPGTIIHFSTNR |

No constants are given. Whether binding was seen depends on the method and setting. Binding seen in cells or lysates may run through a third protein. These calls come from enrichment with a bait or labelling near it, and not all partners need be listed. Where a sequence is shown, tags or fusion partners need not be part of it.
